The supplement of paper PMC8728848
This is one part of the list.

Experiments:
Test in all cases: glycan array binding signal (z-score within array); higher = stronger binding
Conditions in all cases: glycan notation: IUPAC condensed, linker removed
[1] = molecular target: Neu5Ac(a2-6)GlcNAc(b1-4)GlcNAc(b1-4)GlcNAc
In short: (§1)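 Glycan array data came from 3228 arrays in the Consortium for Functional Glycomics database, and only arrays with an available protein sequence were kept. Glycan names were put into IUPAC-condensed notation, and columns mapping to the same glycan were averaged. The binding signal is a within-array Z-score, averaged across arrays of one protein sequence run at different concentrations or buffers and across linkers. A negative Z-score can be read as non-binding.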

[2] = molecular target: Neu5Ac(a2-8)Neu5Ac
In short: as §1

[3] = molecular target: Neu5Ac(a2-8)Neu5Ac(a2-3)Gal(b1-3)GalNAc(b1-4)[Neu5Ac(a2-3)]Gal(b1-4)Glc
In short: as §1

[4] = molecular target: Neu5Ac(a2-8)Neu5Ac(a2-3)Gal(b1-3)GalNAc(b1-4)[Neu5Ac(a2-8)Neu5Ac(a2-3)]Gal(b1-4)Glc
In short: as §1

[5] = molecular target: Neu5Ac(a2-8)Neu5Ac(a2-3)Gal(b1-4)Glc
In short: as §1

[6] = molecular target: Neu5Ac(a2-8)Neu5Ac(a2-3)Gal(b1-4)GlcNAc
In short: as §1

[7] = molecular target: Neu5Ac(a2-8)Neu5Ac(a2-3)[Gal(b1-3)GalNAc(b1-4)]Gal(b1-4)Glc
In short: as §1

[8] = molecular target: Neu5Ac(a2-8)Neu5Ac(a2-3)[GalNAc(b1-4)]Gal(b1-4)Glc
In short: as §1

[9] = molecular target: Neu5Ac(a2-8)Neu5Ac(a2-8)Neu5Ac
In short: as §1

[10] = molecular target: Neu5Ac(a2-8)Neu5Ac(a2-8)Neu5Ac(a2-3)Gal(b1-4)Glc
In short: as §1

[11] = molecular target: Neu5Ac(a2-8)Neu5Ac(a2-8)Neu5Ac(a2-3)[Gal(b1-3)GalNAc(b1-4)]Gal(b1-4)Glc
In short: as §1

[12] = molecular target: Neu5Ac(a2-8)Neu5Ac(a2-8)Neu5Ac(a2-3)[GalNAc(b1-4)]Gal(b1-4)Glc
In short: as §1

[13] = molecular target: Neu5Ac(a2-8)Neu5Ac(a2-8)Neu5Ac(a2-8)Neu5Ac(a2-3)[GalNAc(b1-4)]Gal(b1-4)Glc
In short: as §1

[14] = molecular target: Neu5Ac(a2-8)Neu5Gc(a2-3)Gal(b1-4)GlcNAc
In short: as §1

[15] = molecular target: Neu5Ac(b2-6)Gal(b1-4)GlcNAc
In short: as §1

[16] = molecular target: Neu5Ac(b2-6)GalNAc
In short: as §1

[17] = molecular target: Neu5Ac9Ac(a2-3)Gal(b1-3)GlcNAc
In short: as §1

[18] = molecular target: Neu5Ac9Ac(a2-3)Gal(b1-4)GlcNAc
In short: as §1

[19] = molecular target: Neu5Ac9Ac(a2-6)Gal(b1-4)GlcNAc
In short: as §1

[20] = molecular target: Neu5Gc(a2-3)Gal(b1-3)GlcNAc
In short: as §1

[21] = molecular target: Neu5Gc(a2-3)Gal(b1-3)[Fuc(a1-4)]GlcNAc
In short: as §1

[22] = molecular target: Neu5Gc(a2-3)Gal(b1-4)Glc
In short: as §1

[23] = molecular target: Neu5Gc(a2-3)Gal(b1-4)GlcNAc
In short: as §1

[24] = molecular target: Neu5Gc(a2-3)Gal(b1-4)GlcNAc(b1-3)Gal(b1-4)GlcNAc(b1-2)Man(a1-3)[Neu5Gc(a2-3)Gal(b1-4)GlcNAc(b1-3)Gal(b1-4)GlcNAc(b1-2)Man(a1-6)]Man(b1-4)GlcNAc(b1-4)GlcNAc
In short: as §1

[25] = molecular target: Neu5Gc(a2-3)Gal(b1-4)[Fuc(a1-3)]GlcNAc
In short: as §1

[26] = molecular target: Neu5Gc(a2-6)Gal(b1-4)GlcNAc
In short: as §1

[27] = molecular target: Neu5Gc(a2-6)GalNAc
In short: as §1

[28] = molecular target: Neu5Gc(a2-8)Neu5Ac(a2-3)Gal(b1-4)GlcNAc
In short: as §1

[29] = molecular target: Neu5Gc(a2-8)Neu5Gc(a2-3)Gal(b1-4)GlcNAc
In short: as §1

[30] = molecular target: Neu5Gc(a2-8)Neu5Gc(a2-3)Gal(b1-4)GlcNAc(b1-3)Gal(b1-4)GlcNAc
In short: as §1

[31] = molecular target: Neu5Gc(a2-8)Neu5Gc(a2-6)Gal(b1-4)GlcNAc
In short: as §1

[32] = molecular target: Neu5Gc(b2-6)Gal(b1-4)GlcNAc
In short: as §1

B1: SspB C123 (Streptococcus gordonii), Q54186 (protein)
chain: MAHFHYSSLLAQPQINKEIKNEDGVDIDRTLVAKQSIGKFELKTEALTAGRPKTTSFVLVDPLPTGYKFDLDATKAASTGFDTTYDEASHTVTFKATDETLATYNADLTKPVETLHPTVVGRVLNDGATYTNNFTLTVNDAYGIKSNVVRVTTPGKPNDPDNPNNNYIKPTKVNKNKEGLNIDGKEVLAGSTNYYELTWDLDQYKGDKSSKEAIQNGFYYVDDYPEEALDVRPDLVKVADEKGNQVSGVSVQQYDSLEAAPKKVQDLLKKANITVKGAFQLFSADNPEEFYKQYVSTGTSLVITDPMTVKSEFGKTGGKYENKAYQIDFGNGYATEVVVNNVPKITPKKDVTVSLDPTSENLDGQTVQLYQTFNYRLIGGFIPQNHSEELEDYSFVDDYDQAGDQYTGNYKTFSSLNLTMKDGSVIKAGTDLTSQTTAETDATNGIVTVRFKEDFLQKISLDSPFQAETYLQMRRIAIGTFENTYVNTVNKVAYASAAALEHHHHHH
- glycan array binding signal (z-score) [1]: 0.529
- glycan array binding signal (z-score) [2]: -0.114
- glycan array binding signal (z-score) [3]: 0.292
- glycan array binding signal (z-score) [4]: -1.38
- glycan array binding signal (z-score) [5]: -0.987
- glycan array binding signal (z-score) [6]: -0.93
- glycan array binding signal (z-score) [7]: -0.243
- glycan array binding signal (z-score) [8]: -0.217
- glycan array binding signal (z-score) [9]: 0.341
- glycan array binding signal (z-score) [10]: -1
- glycan array binding signal (z-score) [11]: 5.25
- glycan array binding signal (z-score) [12]: 2.29
- glycan array binding signal (z-score) [13]: -0.486
- glycan array binding signal (z-score) [14]: -0.198
- glycan array binding signal (z-score) [15]: -0.062
- glycan array binding signal (z-score) [16]: 0.518
- glycan array binding signal (z-score) [17]: -1.32
- glycan array binding signal (z-score) [18]: -0.938
- glycan array binding signal (z-score) [19]: 0.758
- glycan array binding signal (z-score) [20]: -0.556
- glycan array binding signal (z-score) [21]: -1.01
- glycan array binding signal (z-score) [22]: -0.645
- glycan array binding signal (z-score) [23]: 0.069
- glycan array binding signal (z-score) [24]: 1.1
- glycan array binding signal (z-score) [25]: 0.32
- glycan array binding signal (z-score) [26]: -1.07
- glycan array binding signal (z-score) [27]: -0.608
- glycan array binding signal (z-score) [28]: 0.879
- glycan array binding signal (z-score) [29]: -0.249
- glycan array binding signal (z-score) [30]: -1.2
- glycan array binding signal (z-score) [31]: -0.685
- glycan array binding signal (z-score) [32]: -1.21
